According to PubChem BioAssay AID504444 (National Center for Advancing Translational Sciences (NCATS), 2011):
Among all 360,000 compounds or so, about 7,500 (2.1%) were called active. This list was built around the results that the source calls inconclusive (neither active nor inactive); the mix of calls is not that of the screen. Calls come from the whole dose curve; as a rule, active = well fitted inhibition curve with a large enough effect; inconclusive = small, poorly fitted or top-dose-only effect, or effect the other way; inactive = flat fitted curve, though single readings scatter. Potencies beside an inconclusive call are fits to weak or partial responses and may not hold up.

assay: Nrf2 qHTS screen for inhibitors; conditions: A549 ARE-Fluc reporter, luciferase luminescence, 18-24 h; series mostly up to 46 µM; note: nearly all actives have a fitted effect of over 60% in size
Procedure, shortened: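 A549 ARE_Fluc cells, 5000/well, 5% FBS OPTI-MEM; compounds in dose-response, 18-24 h at 37 °C/5% CO2; CellTiter-Fluor viability read (Ex 405/Em 525), then BugLite luciferase luminescence = Nrf2 activity.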
Potency is the fitted concentration of half-maximal effect.

Which Potency does the source give for `Cc1ccc(C2(c3noc(CN(C)Cc4cnn(C)c4)n3)CCCC2)cc1` here?
Its Potency is inconclusive: 23.1 µM [falling, single point].

For `N#CCCn1cc(/C=N/O)c(-c2ccc(-c3ccccc3)cc2)n1`, which Potency is on record?
Its Potency is inconclusive: 29.1 µM [falling, single point].

For `COc1ccc2[nH]c3c(NCc4ccco4)ncnc3c2c1`, which Potency is on record?
The Potency was inconclusive: 29.1 µM [activator, single point].

Which Potency does the source give for `CC(C)c1ccc(NC(=O)C(c2ccc3c(c2)OCO3)N2CCC3(CC2)OCCO3)cc1` (stereo not given) here?
Its Potency is inconclusive: 12.6 µM [falling, partial curve, poor fit].

For `COc1ccc(S(=O)(=O)NNC(=O)C2Cc3c(ccc4ccccc34)O2)cc1` (stereo not given), which Potency is on record?
The Potency was inconclusive: 20.6 µM [falling, partial curve, poor fit].

Which Potency does the source give for `Cc1ccc(CN2C(=O)COc3cc(NS(C)(=O)=O)ccc32)cc1` here?
Its Potency is inconclusive: 20.6 µM [falling, single point].

For `COC(=O)c1cc(S(=O)(=O)N2CCN(c3ccc(C)cc3C)CC2)cn1C`, which Potency is on record?
The Potency was inconclusive: 29.1 µM [falling, single point].

For `Cc1cc2nc(C3CCN(Cc4nnnn4Cc4ccccc4)CC3)[nH]c2cc1C`, which Potency is on record?
Its Potency is inconclusive: 8.2 µM [falling, partial curve, poor fit].

For `COc1cc(/C=C2/CCCC(C(=O)C(F)(F)F)=C2O)ccc1O`, which Potency is on record?
Its Potency is “inactive”.

For `COc1ccc([C@H]2CC(=O)C=C(c3cc(OC)ccc3OC)C2)cc1`, which Potency is on record?
Its Potency is inconclusive: 29.1 µM [falling, partial curve, poor fit].

Which Potency does the source give for `COc1ccc(-c2noc(CCCCC(=O)N3CCN(c4cc(C)ccc4C)CC3)n2)cc1` here?
The Potency was active: 3.66 µM.

For `COc1ccc(N2CCN(C(CNC(=O)C(=O)NCc3ccc(F)cc3)c3cccnc3)CC2)cc1` (stereo not given), which Potency is on record?
The Potency was “inactive”.

For `CCc1ccc(NC(=O)N(Cc2c[nH]c3ccccc23)C2CCCCCC2)cc1`, which Potency is on record?
Its Potency is inconclusive: 2.91 µM [activator, full curve].

Which Potency does the source give for `COC(=O)[C@@]1(Cc2ccc(F)cc2)[C@H]2c3cc(C(=O)N(C)C)n(Cc4ccc(OC)c(OC)c4)c3C[C@H]2CN1C(=O)c1ccccc1` here?
Its Potency is inconclusive: 29.1 µM [falling, single point].

Which Potency does the source give for `Cc1ccc(NC(=O)CN2CCc3cc4c(cc3C2C)OCCCO4)cc1C` (stereo not given) here?
Its Potency is active: 25.9 µM.

Which Potency does the source give for `CCN(CC)c1nc2ccccc2nc1C(C#N)C(=O)NCCCOC` (stereo not given) here?
Its Potency is inconclusive: 20.6 µM [falling, single point].

Which Potency does the source give for `Cc1nc2c(C(=O)NCc3ccco3)cnn2c(C)c1Cc1ccc(F)cc1Cl` here?
The Potency was inconclusive: 23.1 µM [falling, partial curve].

With `NC(=O)CSc1nc(C2CC2)nc2sc3c(c12)CCCC3` as the compound, how does the Potency read?
The Potency was inconclusive: 2.31 µM [activator, full curve].

With `Cc1cccc(Cc2c(C)nc3c(C(=O)NCc4ccco4)cnn3c2C)c1` as the compound, how does the Potency read?
The Potency was active: 23.1 µM.

For `CS(=O)(=O)N(Cc1ccccc1)c1ccc(C(=O)NCCSCc2ccco2)cc1`, which Potency is on record?
The Potency was inconclusive: 0.461 µM [falling, full curve, poor fit].

For `CC(C)NC(=O)c1cccc(Br)c1`, which Potency is on record?
Its Potency is inconclusive: 0.366 µM [falling, partial curve, poor fit].

For `Cc1ccc(NC(C)c2cc(Cl)ccc2O)cc1` (stereo not given), which Potency is on record?
Its Potency is “inactive”.

With `Cc1ccc(-c2nnc(SCC(=O)NCCC(C)C)nc2-c2ccc(C)cc2)cc1` as the compound, how does the Potency read?
The Potency was inconclusive: 29.1 µM [falling, single point].

With `CN1CCN(CCC(=O)Nc2ccc(OCc3ccccc3)cc2)CC1` as the compound, how does the Potency read?
The Potency was inconclusive: 13 µM [activator, partial curve].

For `COc1ccc([C@@]23Oc4cc(OC)cc(OC)c4[C@]2(O)[C@H](O)[C@H](C(=O)N(C)C)[C@H]3c2ccccc2)cc1`, which Potency is on record?
Its Potency is active: 0.0206 µM.

For `Cc1cc(NC(=O)C2CCCN(S(=O)(=O)c3ccc(Br)s3)C2)ccc1Br` (stereo not given), which Potency is on record?
The Potency was inconclusive: 29.1 µM [falling, single point].

With `Cc1ccc(NC(=O)COC(=O)c2cccc3c2C(=O)c2ccccc2C3=O)c(C)c1` as the compound, how does the Potency read?
The Potency was inconclusive: 20.6 µM [falling, single point].

With `O=c1c2ccccc2nc(COc2ccccc2)n1/N=C/c1c[nH]c2ccccc12` as the compound, how does the Potency read?
Its Potency is “inactive”.

For `O=C(CCCN1C(=O)c2cccc3cccc(c23)C1=O)N1CCN(c2ncccn2)CC1`, which Potency is on record?
The Potency was inconclusive: 29.1 µM [falling, single point].

Which Potency does the source give for `CC(=O)Nc1cccc(-c2cn3ccc(C)cc3n2)c1` here?
The Potency was inconclusive: 0.58 µM [activator, full curve, poor fit].

With `CCOC(=O)c1cc2cc3ccccc3cc2[nH]1` as the compound, how does the Potency read?
The Potency was inconclusive: 7.31 µM [activator, partial curve, poor fit].

With `O=C(COC(=O)c1ccc(S(=O)(=O)NCc2ccco2)cc1)Nc1ccccc1` as the compound, how does the Potency read?
The Potency was inconclusive: 32.6 µM [falling, single point].

Which Potency does the source give for `O=C(O)c1cc([N+](=O)[O-])ccc1N1CCC(Cc2ccccc2)CC1` here?
Its Potency is inconclusive: 4.61 µM [falling, partial curve, poor fit].

Which Potency does the source give for `Cc1cccc(N2CCN(C(=O)CCS(=O)(=O)c3ccc4c(c3)NC(=O)CO4)CC2)c1C` here?
Its Potency is active: 14.6 µM.

Which Potency does the source give for `CC(C)CN(C(=O)c1ccco1)c1nc2ccccc2s1` here?
Its Potency is inconclusive: 13 µM [activator, partial curve].

Which Potency does the source give for `O=[N+]([O-])c1ccc(N2CCN(C(=S)c3cccc([N+](=O)[O-])c3)CC2)cc1` here?
Its Potency is inconclusive: 5.17 µM [falling, partial curve, poor fit].

For `Cc1ccc(Cl)cc1NC(=O)c1ccc(CSc2nnnn2C)cc1`, which Potency is on record?
The Potency was inconclusive: 0.92 µM [falling, partial curve, poor fit].

For `Cc1ccc(-n2ncc3c(=O)[nH]c(SCC(=O)N4CCCc5ccccc54)nc32)cc1`, which Potency is on record?
The Potency was “inactive”.

With `Cc1ccc(C(=O)Nc2ccc(C(=O)N/N=C/c3ccccn3)cc2)cc1` as the compound, how does the Potency read?
Its Potency is inconclusive: 10.3 µM [activator, partial curve, poor fit].

Which Potency does the source give for `N#C/C(=C\c1ccc(O)c(O)c1)C(=O)Nc1ccccc1` here?
Its Potency is inconclusive: 29.1 µM [activator, single point].
